PubChem BioAssay AID504791 | Drosophila RNAi Screening Center | 2011
The screen tested about 23,000 reagents; below is a random part of those with a known target gene and a result. Of all reagents, 199 (0.86%) were called active. 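Plate-scaled ratios behind the calls are not deposited; printed light signals are raw; many rows marked increased or decreased are still called inactive.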 No sequences are given here. Not given: the direction of the score.

Screen: 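Genes of the fly required for silencing by miRNA, siRNA or endo-siRNA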 (primary screen)
Cell system: Drosophila S2-derived reporter cells
Knock-down reagent: long dsRNA against Drosophila genes, about 150-250 ng dsRNA per well (siRNA assay); about 80-120 ng (miRNA assay)
Time to read-out: about 5 days (siRNA assay); about 4 days (miRNA assay)
Challenge: copper sulfate induction of reporters: 25 µM (siRNA assay); 200 mM stated (miRNA assay), 1-2 days before reading
Detection: 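Per-well ratio of Renilla over firefly light, expressed relative to that plate's average ratio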
Active means: 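a well was a first-pass pick when its plate-scaled ratio rose above 1.5 (siRNA assay) or 1.6 (miRNA assay), or dropped below 0.6; a gene counted only if two separate dsRNAs agreed on retest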

no.	Target gene	DRSC id	stable assay Renilla, run 1 (luminescence)	stable assay firefly, run 1 (luminescence)	outcome
1	CG8526	DRSC16438	7230	4.26e5	inactive
2	E(spl)mbeta-HLH	DRSC16697	8353	6.09e5	inactive
3	Su(fu)	DRSC16871	8174	3.57e5	inactive
4	ms(3)K81	DRSC14746	7090	4.61e5	inactive
5	sprt	DRSC07323	8345	5.14e5	inactive
6	ACC	DRSC06059	4480	2.30e5	inactive
7	ACC	DRSC07249	5886	3.16e5	inactive
8	CG32452	DRSC11581	6123	4.25e5	inactive
9	CG32452	DRSC22250	8780	5.51e5	inactive
10	CG17841	DRSC17737	7490	3.58e5	inactive
11	Sirt2	DRSC15714	7178	3.57e5	inactive
12	noc	DRSC03580	22321	1.57e6	inactive
13	roh	DRSC04003	4143	4.64e5	inactive
14	CG7137	DRSC07017	9058	3.68e5	inactive
15	sstn	DRSC10753	7106	3.83e5	inactive
16	Grx1	DRSC10727	6823	4.19e5	inactive
17	Glo1	DRSC06657	7266	3.38e5	inactive
18	MESR3	DRSC02463	6670	4.37e5	inactive
19	CG13042	DRSC09923	6743	4.17e5	inactive
20	ifc	DRSC03549	58875	2.33e5	inactive
21	CG9452	DRSC11075	8351	3.41e5	inactive
22	CG9452	DRSC23344	3691	3.12e5	inactive
23	wash	DRSC06302	6235	3.31e5	inactive
24	CG8248	DRSC07124	8454	3.72e5	inactive
25	CG12121	DRSC17816	5510	4.65e5	inactive
26	CG32225	DRSC09657	5486	4.08e5	inactive
27	ND-B14.5A	DRSC18500	5143	3.39e5	inactive
28	CG14615	DRSC20627	6387	4.16e5	inactive
29	mAChR-C	DRSC17890	5544	3.03e5	inactive
30	CG17350	DRSC02611	6448	3.81e5	inactive
31	CG4017	DRSC02733	7206	3.28e5	inactive
32	p38b	DRSC03586	7164	4.19e5	inactive
33	CG30324	DRSC22655	4467	3.90e5	inactive
34	eIF4EHP	DRSC13653	3399	2.66e5	inactive
35	eIF4EHP	DRSC14265	7190	3.40e5	inactive
